According to patent publication US20170254813A1 (VENTANA MEDICAL SYSTEMS, published 2017):
Results are given in words; binding and its absence hold for the method and conditions named. Some entries that bind do so weakly or less than the wild type.

Biological target: T1, p120-catenin (UniProt O60716)
T1 sequence (looked up): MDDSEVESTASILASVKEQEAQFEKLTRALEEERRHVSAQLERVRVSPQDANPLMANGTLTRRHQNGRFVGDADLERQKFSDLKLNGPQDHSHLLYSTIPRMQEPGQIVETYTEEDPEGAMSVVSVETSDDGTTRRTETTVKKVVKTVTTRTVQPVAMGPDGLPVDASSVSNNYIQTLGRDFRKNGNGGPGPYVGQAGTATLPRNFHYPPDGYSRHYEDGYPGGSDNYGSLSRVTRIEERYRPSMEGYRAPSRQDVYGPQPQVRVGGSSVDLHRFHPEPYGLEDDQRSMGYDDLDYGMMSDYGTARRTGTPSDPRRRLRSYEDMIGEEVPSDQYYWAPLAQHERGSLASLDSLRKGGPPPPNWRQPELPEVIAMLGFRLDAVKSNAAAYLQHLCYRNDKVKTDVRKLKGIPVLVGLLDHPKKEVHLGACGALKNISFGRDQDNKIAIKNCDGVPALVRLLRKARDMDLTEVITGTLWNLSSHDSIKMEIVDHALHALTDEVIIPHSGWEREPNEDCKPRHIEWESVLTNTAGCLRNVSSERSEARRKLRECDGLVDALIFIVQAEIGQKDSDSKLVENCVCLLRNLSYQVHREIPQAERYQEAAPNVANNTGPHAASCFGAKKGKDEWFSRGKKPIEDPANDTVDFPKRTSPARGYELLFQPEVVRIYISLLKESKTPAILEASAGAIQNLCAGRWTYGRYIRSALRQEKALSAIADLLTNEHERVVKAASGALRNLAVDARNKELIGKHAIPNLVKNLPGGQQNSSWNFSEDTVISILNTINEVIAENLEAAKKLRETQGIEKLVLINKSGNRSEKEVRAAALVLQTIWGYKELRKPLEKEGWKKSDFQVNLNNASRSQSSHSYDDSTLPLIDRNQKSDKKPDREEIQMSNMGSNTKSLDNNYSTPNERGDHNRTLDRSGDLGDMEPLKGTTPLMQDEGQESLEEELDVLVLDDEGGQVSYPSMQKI
Test: in situ proximity assay (chemical ligation and hapten transfer) on FFPE tonsil sections

B1: E-cadherin (other, UniProt P12830 155-882, looked up)
chain: DWVIPPISCPENEKGPFPKNLVQIKSNKDKEGKVFYSITGQGADTPPVGVFIIERETGWLKVTEPLDRERIATYTLFSHAVSSNGNAVEDPMEILITVTDQNDNKPEFTQEVFKGSVMEGALPGTSVMEVTATDADDDVNTYNAAIAYTILSQDPELPDKNMFTINRNTGVISVVTTGLDRESFPTYTLVVQAADLQGEGLSTTATAVITVTDTNDNPPIFNPTTYKGQVPENEANVVITTLKVTDADAPNTPAWEAVYTILNDDGGQFVVTTNPVNNDGILKTAKGLDFEAKQQYILHVAVTNVVPFEVSLTTSTATVTVDVLDVNEAPIFVPPEKRVEVSEDFGVGQEITSYTAQEPDTFMEQKITYRIWRDTANWLEINPDTGAISTRAELDREDFEHVKNSTYTALIIATDNGSPVATGTGTLLLILSDVNDNAPIPEPRTIFFCERNPKPQVINIIDADLPPNTSPFTAELTHGASANWTIQYNDPTQESIILKPKMALEVGDYKINLKLMDNQNKDQVTTLEVSVCDCEGAAGVCRKAQPVEAGLQIPAILGILGGILALLILILLLLLFLRRRAVVKEPLLPPEDDTRDNVYYYDEEGGGEEDQDFDLSQLHRGLDARPEVTRNDVAPTLMSVPRYLPRPANPDEIGNFIDENLKAADTDPTAPPYDSLLVFDYEGSGSEAASLSSLNSSESDKDQDYDYLNEWGNRFKKLADMYGGGEDD
notes: Endogenous protein in tissue section; also called E-cadherein
Which binding does the source give for B1 here?
Its binding is “binds”.
